Laboratory results from publication PMC11574364.

Experiments:
Assay in all cases: human ORF protein microarray
GATS (Homo sapiens) = molecular target: T1, GATS (Homo sapiens) (UniProt Q8NAP1); conditions: 5' phosphate; Domain array: 20 mM Tris-HCl pH 7.4, 200 mM KCl, 0.2 mM EDTA, 0.05% NP40, 2 ug/ul heparin, overnight 4 C. ORF array: PBS pH 7.0 with RNase inhibitor, 100 ng RNA, 1 h.; recombinant protein; protein details: N-terminal GST-6xHis; label: internal DY647 at G18; letters put together from the description
T1 sequence (looked up, limits assumed): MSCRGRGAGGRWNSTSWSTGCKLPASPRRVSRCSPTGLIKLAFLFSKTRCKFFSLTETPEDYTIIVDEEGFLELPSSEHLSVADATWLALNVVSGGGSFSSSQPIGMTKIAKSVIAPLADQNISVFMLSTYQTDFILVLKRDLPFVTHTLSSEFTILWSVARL

ZNF165 (Homo sapiens) = molecular target: T2, ZNF165 (Homo sapiens) (UniProt P49910); conditions: 5' phosphate; Domain array: 20 mM Tris-HCl pH 7.4, 200 mM KCl, 0.2 mM EDTA, 0.05% NP40, 2 ug/ul heparin, overnight 4 C. ORF array: PBS pH 7.0 with RNase inhibitor, 100 ng RNA, 1 h.; recombinant protein; protein details: N-terminal GST-6xHis; label: internal DY647 at G18; letters put together from the description
T2 sequence (looked up, limits assumed): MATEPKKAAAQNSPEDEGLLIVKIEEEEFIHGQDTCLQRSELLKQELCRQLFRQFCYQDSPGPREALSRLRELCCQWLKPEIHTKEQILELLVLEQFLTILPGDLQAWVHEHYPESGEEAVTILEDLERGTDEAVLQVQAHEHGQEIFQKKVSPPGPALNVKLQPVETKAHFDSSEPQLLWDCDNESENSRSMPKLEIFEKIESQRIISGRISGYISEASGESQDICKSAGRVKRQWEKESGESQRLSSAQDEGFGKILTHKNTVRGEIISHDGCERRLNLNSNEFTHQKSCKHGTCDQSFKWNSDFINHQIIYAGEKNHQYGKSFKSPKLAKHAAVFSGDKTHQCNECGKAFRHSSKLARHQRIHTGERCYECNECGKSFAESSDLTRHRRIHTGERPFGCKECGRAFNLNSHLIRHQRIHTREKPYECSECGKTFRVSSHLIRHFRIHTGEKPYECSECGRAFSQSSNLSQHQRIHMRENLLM

LYK5 (Homo sapiens) = molecular target: T3, LYK5 (Homo sapiens) (UniProt Q7RTN6); conditions: 5' phosphate; amino-C6 U at position 18; Domain array: 20 mM Tris-HCl pH 7.4, 200 mM KCl, 0.2 mM EDTA, 0.05% NP40, 2 ug/ul heparin, overnight 4 C. ORF array: PBS pH 7.0 with RNase inhibitor, 100 ng RNA, 1 h.; recombinant protein; protein details: N-terminal GST-6xHis; label: internal Cy5 or DY647
T3 sequence (looked up, limits assumed): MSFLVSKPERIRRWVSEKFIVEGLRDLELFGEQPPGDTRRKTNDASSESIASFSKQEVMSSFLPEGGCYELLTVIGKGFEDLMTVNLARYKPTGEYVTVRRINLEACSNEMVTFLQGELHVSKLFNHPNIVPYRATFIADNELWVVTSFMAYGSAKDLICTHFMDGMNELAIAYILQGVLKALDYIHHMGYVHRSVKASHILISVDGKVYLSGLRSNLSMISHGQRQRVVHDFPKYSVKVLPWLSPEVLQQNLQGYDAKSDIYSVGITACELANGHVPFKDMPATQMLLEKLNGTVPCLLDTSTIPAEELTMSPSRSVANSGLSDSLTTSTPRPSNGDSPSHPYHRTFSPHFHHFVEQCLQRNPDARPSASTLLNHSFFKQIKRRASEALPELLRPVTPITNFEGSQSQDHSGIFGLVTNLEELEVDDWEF

Sequence | binding result (GATS (Homo sapiens)) | binding result (ZNF165 (Homo sapiens)) | binding result (LYK5 (Homo sapiens))
CAGUGCAAUGAUGAAAGGGCAU [miR-130b (internal labeling)] | binds | binds | –
UGAGGUAGUAGGUUGUGUGGUU [let-7b (internal labeling)] | – | – | binds

For at least one entry, the source does not settle the construct or the ends of the probe. Tags and fusion partners may be left off the protein sequences shown.
